# Screening data, single-dose tests

From ChEMBL document CHEMBL3988442, “University of Dundee, Small-Polar-MMV Screening Library” (2021).

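Growth of Mycobacterium tuberculosis over 3 days (7H9 medium with glucose and tyloxapol); the read-out is not stated. Compounds at 50 µM. Direction is inferred from retests: higher values go with more growth inhibition. About 69,000 compounds were tested under these conditions; 1.1% (about 760) showed 50% or more at least once.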

Each number is a percent effect as filed.
How 0% and 100% were set is not recorded. Most values in the screen are low, and negative values occur.
Compounds were drawn at random from those tested, without regard to their results.
Two or more numbers in one place are separate tests of the same structure; such repeats can differ widely.

| # | compound | effect |
|---|---|---|
| 1 | `O=C(CC(F)(F)F)Nc1cc(F)ccc1OCC1CCCO1` (stereo unspecified) | -2.362 |
| 2 | `CN(C)C(=O)CCCS(=O)(=O)Cc1cc(Cl)c2c(c1)OCO2` | -24.58 |
| 3 | `CC(=O)N1CCCC1c1nc(N(C)C)ncc1-c1ccccc1` (stereo unspecified) | -2.683 |
| 4 | `NC(=O)c1cc(C2CCCN(C(=O)CCc3ccncc3)C2)n[nH]1` (stereo unspecified) | 65.05 |
| 5 | `Cc1nc(C)n(CC2CCCCN2CC(=O)Nc2ccncc2)n1` (stereo unspecified) | -31.89 |
| 6 | `O=C(O)C(F)(F)F.[H][C@@]12COC[C@@H](C(=O)Nc3cnccn3)[C@]1([H])CN(C1CCC1)C2` | 5.242 |
| 7 | `CCOc1ncccc1NC(=O)C1CCS(=O)(=O)C1` (stereo unspecified) | 22.48 |
| 8 | `Cc1cnn(CCNCC(O)COc2cc(Cl)ccc2Cl)c1` (stereo unspecified) | -41.03 |
| 9 | `O=C(c1cccc(N2CCCC2=O)c1)N1CCCC(n2cccn2)C1` (stereo unspecified) | -4.944 |
| 10 | `CCc1nc(CCNC(=O)NC2CCN(C(C)C)C2)sc1C` (stereo unspecified) | 1.8 |
| 11 | `O=C(O)C(F)(F)F.[H][C@]12CCN(CC(C)C)CC[C@@]1([H])S(=O)(=O)CCN2C(=O)c1ccccc1` | -7.748 |
| 12 | `[H][C@@]12NC(=O)N[C@@H](c3ccc(OC)cc3)[C@]1([H])CCCO2` | 21.12 |
| 13 | `Cc1nc(C)n(CCCNc2ncnc3onc(C)c23)n1` | -5.576 |
| 14 | `CCC(CN1CCCC1)n1cncc1-c1cnn(-c2ccc(F)cc2)c1.Cl` (stereo unspecified) | 0.02073 |
| 15 | `CC(C)c1nc(CC(=O)N2CCN(C)CC2c2ccccc2)cs1` (stereo unspecified) | -12.12 & -3.119 |
| 16 | `O=C(NCCc1nnc2n1CCCCC2)N1CCC2(CCCC2)CC1` | 19.41 |
| 17 | `CN(CC(=O)NCC(F)(F)F)C(=O)c1ccc(C(=O)OC(C)(C)C)cc1` | -22.21 |
| 18 | `O=C(CN1CCS(=O)(=O)CC1)NCc1cccc(Br)c1` | -7.535 & -3.105 |
| 19 | `[H][C@@]12C[C@H](C(=O)NCc3cccnc3)[C@@]([H])(CN(Cc3ccc(C)o3)C1)O2` | -1.701 & -25.05 |
| 20 | `Cc1ccc(CC(=O)N2CCCC(n3nc(C)cc3C)C2)cn1` (stereo unspecified) | 7.984 |
| 21 | `Cc1cnc(CN(Cc2ccccc2)CC(O)c2cccs2)cn1` (stereo unspecified) | 44.34 |
| 22 | `Cc1nc(NCc2ccccn2)c2c(n1)c(C)nn2C` | -0.8818 |
| 23 | `Cc1cc2ccccc2n1CCC(=O)N1CCCCC1CCO` (stereo unspecified) | 20.34 |
| 24 | `CC(C)c1ccc(C(C)NC(=O)N2CCC(n3cncn3)CC2)cc1` (stereo unspecified) | 0.9574 |
| 25 | `CC(C)n1cnc2c1C(C(=O)N1CCOCC1)N(CC1CC1)CC2.O=C(O)C(F)(F)F` (stereo unspecified) | -20.19 & -11.01 |
| 26 | `O=C(c1ccc2c(c1)CCCC2)N1CCOCC1c1ncon1` (stereo unspecified) | 46.62 |
| 27 | `CC(=O)Nc1ccc(C(=O)N(C)Cc2ccc(F)cc2F)s1` | 11.2 |
| 28 | `CC(C)N1CCC(C(=O)N[C@H](C(=O)O)c2cccc(F)c2F)CC1` | 7.847 |
| 29 | `Cc1noc(C)c1CN(C)C(=O)c1nc(N2CCCC2)ncc1Cl` | -5.307 & -24.5 |
| 30 | `[H][C@]12CC[C@](O)(c3ccc(C)cc3)[C@@]1([H])CN(S(=O)(=O)C(C)C)C2` | -2.894 |
| 31 | `Cc1ncncc1C(=O)N1CCCC(c2[nH]ncc2S(C)(=O)=O)C1` (stereo unspecified) | -4.352 |
| 32 | `CCC(C)(C)NC(=O)Cn1nnc(CN(C)C(=O)c2ccccc2)n1` | -1.146 |
| 33 | `COc1cc(NC(=O)NCc2nccn2C)ccc1Br` | 1.961 |
| 34 | `CN1CCC(N(CCc2ccccc2)C(=O)c2ccc(C#N)cc2)CC1` | -7.34 |
| 35 | `Cc1cc(N2CCN(CCO)CC2)nc(-c2ccncc2)n1` | -2.747 & 0.5272 |
| 36 | `CC(C)N(CC(N)=O)Cc1c(Cl)ccc2cccnc12` | 11.11 & 1.995 |
| 37 | `c1cc(CN2CCOC3(CCCC3)C2)no1` | -3.683 & -5.545 |
| 38 | `NC(=O)c1cccc(CC2CCN(C(=O)CCCN3CCOCC3)C2)c1` (stereo unspecified) | -3.898 & -13.8 |
| 39 | `COc1cccc(CN2CCOC(c3cnccn3)C2)c1F` (stereo unspecified) | -27.11 |
| 40 | `CC(=O)N(Cc1ncc(C)o1)C1CCN(Cc2cnc(C)s2)C1` (stereo unspecified) | -31.02 |
| 41 | `Cc1nn(C)c(C)c1C(=O)NC(C)CC(=O)c1cccs1` (stereo unspecified) | 24.58 |
| 42 | `Cc1nc(C2(O)CCCNCC2)sc1CCOc1ccccc1F.Cl` (stereo unspecified) | 7.097 |
| 43 | `Cc1ccc(N2CCCC(NCC(=O)Nc3cc(C)no3)C2)nn1` (stereo unspecified) | -23.49 |
| 44 | `O=C(O)C(F)(F)F.[H][C@@]12CCN(C3CCOCC3)C[C@@]1([H])[C@H](C(=O)NCc1ccco1)CCO2` | -55.01 |
| 45 | `Cc1n[nH]c(C)c1CCC(=O)NCC1COc2ccccc2C1` (stereo unspecified) | -7.569 & -19.48 |
| 46 | `CCc1cnc(C)nc1N1CCN(Cc2ccc(-c3cc[nH]n3)o2)CC1` | 0.522 |
| 47 | `CN(C)C(=O)CN1CCCCC1c1nc(N)ncc1-c1cccc(F)c1` (stereo unspecified) | -34.62 |
| 48 | `Cn1c(=O)[nH]c(=O)n2c(CC(=O)Nc3ccc(Cl)c(Cl)c3)cnc12` | 1.986 |
| 49 | `COCCOc1ccc(NC(=O)N2CCCC2c2ccsc2)cn1` (stereo unspecified) | -2.645 |
| 50 | `Cc1cc(N(C)CCCn2cccn2)nc(-c2cccnc2)n1` | -27.28 |
| 51 | `CCOCCCNC(=O)c1nn(CC)cc1Br` | -0.1823 |
| 52 | `CCC(C)(NCc1nnc(C(C)(C)C)o1)c1nccs1` (stereo unspecified) | 1.655 & 23.98 |
| 53 | `CCNc1cc2c(nn1)CCN(C(=O)c1ccc(CNC(C)=O)o1)C2` | -28.63 |
| 54 | `O=C(c1ccco1)N1CCC[C@]2(C[C@H](Oc3ncccc3F)CO2)C1` | 7.371 |
| 55 | `O=C(O)C(F)(F)F.O=C(O)C(F)(F)F.[H][C@@]12CCN(Cc3ccc(F)cc3)[C@]1([H])CC[C@H](COCc1cccnc1)O2` | -30.68 |
| 56 | `O=C(NCc1cnn2cccnc12)C1CC2(CCNCC2)CN1` (stereo unspecified) | 9.242 |
| 57 | `CS(=O)(=O)c1cncnc1C1CCCN(C(=O)Nc2ccccc2F)C1` (stereo unspecified) | -8.633 |
| 58 | `[H][C@@]12CO[C@@H](CNS(C)(=O)=O)[C@]1([H])CCN(C(=O)c1ccc[nH]1)C2` | 5.752 |
| 59 | `Cn1cnc2c1C(COCC1CCOCC1)CN(C(=O)c1ccco1)C2.O=C(O)C(F)(F)F` (stereo unspecified) | -0.9476 |
| 60 | `Cn1nc(C(=O)N2CCOCC2)cc1C(=O)Nc1ncc(Cl)cc1Cl` | -0.8481 |
| 61 | `CCOC(=O)c1nc(CN2CCN(C(C)C(=O)NC3CC3)CC2)cs1` (stereo unspecified) | -29.35 |
| 62 | `Cc1ncsc1CN1C[C@H](NC(=O)C2CCOCC2)[C@@H](C(C)C)C1` | -0.02745 |
| 63 | `Cc1ccc(C(C)N(C)C(=O)c2ccc(=O)n(C)c2)s1` (stereo unspecified) | 0.1367 |
| 64 | `Cc1ccc(CN2Cc3ccccc3O[C@]3(CC[C@H](CO)CC3)C2)s1.Cl` | 7.53 |
| 65 | `O=C1NCCN(Cc2cccnc2)C1CC(=O)N1CCc2n[nH]cc2C1` (stereo unspecified) | -9.408 & 2.489 |
| 66 | `O=C(C1CCCO1)N1CCC(n2cc(-c3ccsc3)nn2)CC1` (stereo unspecified) | -0.5568 & -18.61 |
| 67 | `CNC(=O)CS(=O)(=O)Cc1cc(Cl)c2c(c1)OCCCO2` | -11.15 |
| 68 | `Cc1ccc(CN(Cc2ccccn2)C(=O)[C@H]2CC[C@@H](N)C2)s1` | -3.769 |

The last 9 entries again:

With Cn1nc(C(=O)N2CCOCC2)cc1C(=O)Nc1ncc(Cl)cc1Cl the screen gave -0.8481%.
With CCOC(=O)c1nc(CN2CCN(C(C)C(=O)NC3CC3)CC2)cs1 (stereo unspecified) the screen gave -29.35%.
With Cc1ncsc1CN1C[C@H](NC(=O)C2CCOCC2)[C@@H](C(C)C)C1 the screen gave -0.02745%.
With Cc1ccc(C(C)N(C)C(=O)c2ccc(=O)n(C)c2)s1 (stereo unspecified) the screen gave 0.1367%.
With Cc1ccc(CN2Cc3ccccc3O[C@]3(CC[C@H](CO)CC3)C2)s1.Cl the screen gave 7.53%.
With O=C1NCCN(Cc2cccnc2)C1CC(=O)N1CCc2n[nH]cc2C1 (stereo unspecified) the screen gave -9.408% & 2.489%.
With O=C(C1CCCO1)N1CCC(n2cc(-c3ccsc3)nn2)CC1 (stereo unspecified) the screen gave -0.5568% & -18.61%.
With CNC(=O)CS(=O)(=O)Cc1cc(Cl)c2c(c1)OCCCO2 the screen gave -11.15%.
With Cc1ccc(CN(Cc2ccccn2)C(=O)[C@H]2CC[C@@H](N)C2)s1 the screen gave -3.769%.